# Assay results published in publication doi:10.1101/2025.03.10.642361.
# The chains behind the UniProt entries cited, without tags or fusion partners.
# UniProt Q15386: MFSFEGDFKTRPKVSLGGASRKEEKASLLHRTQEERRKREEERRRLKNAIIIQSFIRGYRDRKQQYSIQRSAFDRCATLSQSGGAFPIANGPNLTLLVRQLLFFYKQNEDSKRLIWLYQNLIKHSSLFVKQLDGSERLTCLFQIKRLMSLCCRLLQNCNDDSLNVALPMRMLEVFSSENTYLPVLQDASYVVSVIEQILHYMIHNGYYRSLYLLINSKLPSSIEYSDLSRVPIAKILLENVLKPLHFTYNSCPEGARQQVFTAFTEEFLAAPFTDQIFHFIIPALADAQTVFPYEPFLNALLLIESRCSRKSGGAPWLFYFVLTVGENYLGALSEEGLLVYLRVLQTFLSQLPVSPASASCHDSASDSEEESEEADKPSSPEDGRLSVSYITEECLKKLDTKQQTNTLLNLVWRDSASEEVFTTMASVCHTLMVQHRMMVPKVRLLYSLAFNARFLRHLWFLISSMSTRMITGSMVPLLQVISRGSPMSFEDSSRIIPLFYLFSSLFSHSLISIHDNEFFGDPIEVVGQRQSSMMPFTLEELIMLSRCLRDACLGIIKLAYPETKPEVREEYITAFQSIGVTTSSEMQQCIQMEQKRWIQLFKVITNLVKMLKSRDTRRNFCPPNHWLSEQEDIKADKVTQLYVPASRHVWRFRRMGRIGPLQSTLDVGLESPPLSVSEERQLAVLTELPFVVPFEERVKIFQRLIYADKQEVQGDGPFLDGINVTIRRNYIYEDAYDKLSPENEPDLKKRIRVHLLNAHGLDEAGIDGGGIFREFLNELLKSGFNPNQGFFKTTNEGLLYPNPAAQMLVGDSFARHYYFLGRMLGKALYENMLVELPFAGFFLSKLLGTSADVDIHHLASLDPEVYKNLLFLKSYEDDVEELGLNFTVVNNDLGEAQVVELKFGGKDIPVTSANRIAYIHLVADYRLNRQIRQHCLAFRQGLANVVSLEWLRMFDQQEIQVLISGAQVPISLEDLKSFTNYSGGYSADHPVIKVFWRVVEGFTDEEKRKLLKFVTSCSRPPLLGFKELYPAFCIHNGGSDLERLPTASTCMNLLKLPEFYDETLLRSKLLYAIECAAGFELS
# These are yes or no findings as the source states them, for the method shown. In cells and extracts the contact can be indirect. Some binding calls cover weakened binding; strength is not graded here.
# Biological target: HA-mLST8 expressed in HT29 cells (human) (UniProt Q9BVC4)
# Test: co-IP
substance,measurement,value
"E3 ubiquitin ligase UBE3C, endogenous (from UniProt Q15386 1-1083) (enzyme)",binding,binds
